# From PubChem BioAssay AID493014 (National Center for Advancing Translational Sciences (NCATS), 2011)
# The whole screen tested about 340,000 compounds, of which about 170 (0.05%) were called active. Inconclusive means that the source gave no clear call. Such entries were picked first, then a sample of the others. Calls follow the shape of the dose curve; as a rule, active = well fitted inhibition curve with a large enough effect in the signal ratio, with a control signal flat (not every such curve was filed as active); inconclusive = small, poorly fitted or top-dose-only effect, or effect the other way, or a change in a side signal; inactive = flat fitted curve, though single readings scatter; the % refers to the signal ratio. Potencies of inconclusive entries are doubtful fits and often do not repeat.
# Experiment: qHTS Assay to Find Inhibitors of Chronic Active B-Cell Receptor Signaling;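 as to activity change, negative = inhibition: plate controls were basal doxycycline-induced cells for no effect and cells given 10 µM MG132 for full effect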
# Conditions: ABC-DLBCL IkBa-CBG/CBR reporter, luminescence ratio (green luciferase fused to IkBa over red control in TMD8 lymphoma cells), 4 h; activity change, negative = inhibition: at 46.1 µM (top of the series)
# Outline: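 Compounds up to 46 uM were incubated four hours with TMD8 cells whose green CBG68 luciferase is fused to IkappaBalpha; red CBR luminescence normalised the signal, and concentration-effect curves were fitted to fusion, red and ratio data.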
# Potency is read from the fitted curve at half-maximal effect.
Compound,"activity change, negative = inhibition",Potency
COc1cc2c(cc1NC(=S)NC(=O)c1c(OC)cccc1OC)oc1ccccc12,inconclusive: 0.105%,
O=C(CCc1ccccc1)Nc1cccnc1Cl,inconclusive: -1.52%,
CCCCn1c(N)c(N(CC(C)C)C(=O)C2CCN(C(=O)c3ccc(F)cc3)CC2)c(=O)[nH]c1=O,,"inconclusive: 2.82 µM [falling, partial curve, poor fit]"
CCCc1cc(=O)n2[nH]c(C)c(-c3ccccc3)c2n1,inactive,
COC(=O)C1=C(C(=O)OC)SC(=C2C(=S)C(C)(C)N(C(=O)CC(C)C)c3ccccc32)S1,inactive,
CCc1cccc(CC)c1NC(=S)NCCc1ccc(O)c(O)c1,,"inconclusive: 11.2 µM [falling, partial curve]"
Cc1cccc(C)c1OCc1n[nH]c(=S)n1-c1ccccc1,,"inconclusive: 35.5 µM [falling, single point]"
COc1ccc(C(=O)Nc2ccc(C)cn2)c(OC)c1,,"inconclusive: 18.4 µM [falling, single point]"
COc1ccc(CN(C)C(=O)c2cnc(OC)cc2C(F)(F)F)c(OC)c1,inconclusive: -10.2%,
CN(C)S(=O)(=O)N1CCC(C(=O)O)(c2ccccc2)CC1,,"inconclusive: 4.11 µM [rising, full curve, poor fit]"
CCCCN(C)C1=CC2=CC(=C(C#N)C#N)CCC2CC1 (centres undefined),inactive,
Cc1c(C(=O)NNC(=O)c2csc(N3CCOCC3)n2)cccc1[N+](=O)[O-],inconclusive: 2.79%,
CCN(CC)c1ccc(/C=N/OC(C)C(=O)Nc2ccc(C)cc2)cc1 (centres undefined),inconclusive: 6.25%,
CC(C)CN(C(=O)COc1ccc(C(C)(C)C)cc1)C1CCS(=O)(=O)C1 (centres undefined),inactive,
CN(C)S(=O)(=O)c1ccc(Cl)c(NC(=O)COC(=O)[C@@H]2CCCN2C(=O)c2cccs2)c1,inconclusive: 2.04%,
O=C(NC(=S)Nc1cc([N+](=O)[O-])ccc1Cl)c1ccccc1,,"inconclusive: 0.184 µM [falling, full curve, poor fit]"
Cc1ccc(-c2nnn(CC(=O)N(CC3CCCO3)C(C(=O)NCC3CCCO3)c3ccc(F)cc3)n2)o1 (centres undefined),inconclusive: 15.4%,
O=c1c2ccccc2[nH]c(=S)n1CCCN1CCN(C2CCCCC2)CC1,inconclusive: 0.157%,
COc1cccc(-c2nc3cc(C)ccc3o2)c1,,"inconclusive: 22.4 µM [falling, single point]"
CCOC(=O)N1CCC(n2c(SCC(=O)NCCc3ccc(S(N)(=O)=O)cc3)nc3ccccc3c2=O)CC1,inconclusive: -7.05%,
Cc1ccc(C(=S)NCS(=O)(=O)c2ccc(C)cc2)cc1,,"inconclusive: 35.5 µM [falling, single point]"
CCC(C)NC(=O)CSc1nc2cc(S(=O)(=O)N3CCOCC3)ccc2n1CC (centres undefined),inconclusive: 42.9%,
CCCC(=O)C1=C(c2ccc(C)cc2)N(C(=O)CCC)n2cnnc2S1,,active: 20 µM
COc1ccc(C(CNC(=O)c2ccc(C)o2)N2CCOCC2)cc1 (centres undefined),inactive,
O=C(Cn1c(NCCCO)nc2ccccc21)c1ccc(F)cc1,inactive,

Compound,"activity change, negative = inhibition",Potency
Cc1ccc(S(=O)(=O)N2CCCC2C(=O)n2nc(C)cc2C)cc1 (centres undefined),inconclusive: 8.82%,
Cc1ccnc(NS(=O)(=O)c2ccc(NC(=O)CSc3nc(-c4ccccc4)cc(=O)[nH]3)cc2)n1,,"inconclusive: 3.55 µM [falling, full curve, poor fit]"
CC(C)[C@H](NC(=O)c1ccccc1)C(=O)Nc1ccc2c(c1)OCO2,inactive,
C/C(=C\c1ccc(C(=O)O)cc1)c1ccc2c(c1)C(C)(C)CCC2(C)C,,"inconclusive: 16.4 µM [falling, partial curve]"
C/C(=N\NS(=O)(=O)c1ccc(Br)cc1)c1ccncc1,,"inconclusive: 25.1 µM [falling, single point]"
CCCCNc1nc2sc3c(c2c(=O)n1-c1cccc(Cl)c1)CCN(C)C3,inconclusive: -12.1%,
CC1CCCN(c2ccc(C(=O)NCc3cccs3)cn2)C1 (centres undefined),,"inconclusive: 23.1 µM [falling, partial curve, poor fit]"
OCCNCCNCc1ccccc1OCc1ccccc1,inconclusive: -19%,
CCOc1nc(C)nc(NC(=O)NS(=O)(=O)c2ccccc2Cl)n1,inconclusive: 10.3%,
COc1ccc(CCNC(=S)NCCc2c[nH]c3ccccc23)cc1,inconclusive: -18.3%,
CCc1ccc(CNCc2ccc(OCC(O)CN(C)Cc3ccccc3)cc2)nc1 (centres undefined),inactive,
Cc1cc(C)nc(NC(=NCCc2c[nH]c3ccccc23)NC(=O)Nc2cccc([N+](=O)[O-])c2)n1,inconclusive: -0.1%,
O=S(=O)(NCc1ccc(Cl)cc1Cl)c1cccs1,inconclusive: 1.69%,
N/C(=N\N=C\c1ccc([N+](=O)[O-])cc1)c1nonc1N,inconclusive: -3.17%,
CCSC1=NSC2=NC(=O)/C(=C\c3coc4ccccc4c3=O)C(=N)N12,,"inconclusive: 0.231 µM [rising, full curve]"
COc1cccc(C(=O)Oc2ccccc2/C=C\C(=O)c2cc3ccccc3o2)c1,,"inconclusive: 4.61 µM [falling, full curve]"
Cc1cc(NC(=O)COc2ccccc2)ccc1Cl,inconclusive: 0.607%,
CC(C)(C)C1=CC(O)(c2ccccc2)C=C(C(C)(C)C)C1=O,inconclusive: 9.31%,
OC[C@H]1O[C@@H](n2cnc3c(Nc4ccccc4)ncnc32)[C@H](O)[C@@H]1O,,"inconclusive: 4.11 µM [falling, single point]"
O=C(CCN1C(=O)/C(=C/c2cccs2)SC1=S)Nc1cccc(C(=O)O)c1,,"inconclusive: 7.94 µM [rising, partial curve, poor fit]"
C=CCn1c(CNC(=O)c2ccco2)nnc1SCC(=O)Nc1cccc(Br)c1,inconclusive: 13.7%,
CCc1ccc(N2NC(=O)/C(=C/C=C/c3ccco3)C2=O)cc1,inactive,
CCN(CC(=O)Nc1c(F)cccc1F)C(=O)CCC(=O)c1ccc(C)cc1,inconclusive: 8.36%,
C=C(C)C(=O)Nc1cccc(C2=NOC3(C2)C[C@H](C(N)=O)N(C(=O)CC)C3)c1 (some centres undefined),inconclusive: 1.98%,

# Some values from the results shown.
# In Potency, CCCC(=O)C1=C(c2ccc(C)cc2)N(C(=O)CCC)n2cnnc2S1 is entered as active: 20 µM
# In activity change, negative = inhibition, CCC(C)NC(=O)CSc1nc2cc(S(=O)(=O)N3CCOCC3)ccc2n1CC (centres undefined) is entered as inconclusive: 42.9%
# In activity change, negative = inhibition, O=S(=O)(NCc1ccc(Cl)cc1Cl)c1cccs1 is entered as inconclusive: 1.69%
